Out of some 360,000 compounds screened, about 7,500 (2.1%) were called active. The shares of active, inactive and inconclusive entries below differ from those in the screen. The call rests on the fitted dose curve; in most records, active means well fitted inhibition curve with a large enough effect; inconclusive means small, poorly fitted or top-dose-only effect, or effect the other way; inactive means flat fitted curve, though single readings scatter. A potency beside an inconclusive call is a rough fit, not a confirmed value.
Assay: Nrf2 qHTS screen for inhibitors; further: nearly all actives have a fitted effect of over 60% in size
Conditions: A549 ARE-Fluc reporter, luciferase luminescence, 18-24 h; activity change, negative = inhibition: at 46 µM (top of the series)
In short: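 Cells were seeded and rested 2 h, then exposed to compounds for 18-24 h. CellTiter-Fluor was read first as a viability measure. BugLite was added 15 min before the final luminescent read of ARE-luciferase activity in A549 cells.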
On the % scale 0 is the no-effect control and ±100 the full control effect; potency means the concentration at half of the fitted maximal effect.

SMILES	Potency	activity change, negative = inhibition
COc1cccc(Nc2ccc(C(=O)O)cc2N)c1	inconclusive: 1.84 µM [activator, full curve]	
CCOc1cc(C(=O)Nc2ccc(-c3nnc4n3CCCCC4)cc2)cc(OCC)c1OCC	inconclusive: 0.461 µM [falling, partial curve, poor fit]	
COc1ccccc1NC(=O)c1ccc2ccccc2c1	inconclusive: 0.092 µM [activator, full curve, poor fit]	
CC(C)OCCCNC(=O)c1ccc(CN2CCc3ccccc3C2)cc1	inconclusive: 11.6 µM [falling, partial curve]	
COc1ccc(C2=NC(C(F)(F)F)(C(F)(F)F)c3c(n(C)c(=O)n(C)c3=O)N2)cc1	inconclusive: 29.1 µM [falling, single point]	
C/C(=N\NS(=O)(=O)c1ccc(Cl)c([N+](=O)[O-])c1)c1ccc(C)o1		inactive: -8.87%
S=c1[nH]c2cc3ccccc3cc2[nH]1	inconclusive: 29.1 µM [activator, single point]	
O=S(=O)(c1ccc(F)cc1)N1CCN(c2ccccn2)CC1	inconclusive: 16.4 µM [falling, partial curve, poor fit]	
CCOc1cc2c3c(c1)C1(Nc4ccccc4S1)C(=O)N3C(C)(C)CC2C (stereo not given)	inconclusive: 29.1 µM [falling, partial curve, poor fit]	
CC(=O)c1ccc(OCc2cc(C(=O)N(C)Cc3ccon3)no2)cc1	inconclusive: 1.64 µM [activator, full curve, poor fit]	
C/C(=N\NC(=O)C(C)n1nc(C)c([N+](=O)[O-])c1C)c1ccccc1O (stereo not given)	inconclusive: 14.6 µM [falling, partial curve]	
COc1ccc2nc(Nc3ccc4c(c3)OCO4)sc2c1	inconclusive: 3.66 µM [activator, single point]	
Cc1ccc2nc(/C(C#N)=C/c3ccc(-c4ccc(C(=O)OC(C)C)cc4)o3)[nH]c2c1	inconclusive: 9.2 µM [activator, partial curve]	
Nc1nnc(-c2ccco2)s1		inactive: 5.41%
CC(C)n1nc(C(=O)Nc2nnc(SCc3c(Cl)cccc3Cl)s2)c2ccccc2c1=O	inconclusive: 18.4 µM [falling, partial curve, poor fit]	
Cc1ccc(NC(=O)c2cccc(S(=O)(=O)N3CCN(c4ccc(F)cc4)CC3)c2)nc1	active: 23.1 µM	
Cc1ccc(S(=O)(=O)N2[C@@H](c3ccc(F)cc3)C(C(=O)O)=CC[C@H]2c2cccc(Cl)c2)cc1	inconclusive: 16.4 µM [falling, partial curve, poor fit]	
COc1cc(NC(=O)Nc2c[nH]c(=O)[nH]c2=O)cc(OC)c1OC	inconclusive: 29.1 µM [activator, single point]	
COc1ccc2c(c1)[C@H]1[C@H](CO2)[C@H](c2ccccc2)[C@]2(C)C(=O)Nc3ccc(Cl)cc3C(=O)N12	inconclusive: 2.91 µM [activator, partial curve, poor fit]	
Cc1cc(NC(=O)c2ccc3[nH]c(C)c(C)c3c2)ccn1	inconclusive: 32.6 µM [falling, single point]	
CCn1c(C)csc1=NC(=O)c1ccccc1	inconclusive: 23.1 µM [activator, single point]	
CCN(CC(=O)Nc1ccc2c(c1)OCCO2)C(=O)c1ccc([N+](=O)[O-])s1	inconclusive: 10.3 µM [falling, partial curve, poor fit]	

SMILES	Potency	activity change, negative = inhibition
Cc1ccc(C)c(NS(=O)(=O)c2cc(C(=O)NCCC3=CCCCC3)ccc2C)c1	active: 20.6 µM	
Cc1ccc(C=NNC(=O)c2cc(-c3cccnc3)nc3ccccc23)o1	inconclusive: 25.9 µM [activator, single point]	
Cc1ccc(OCc2cc(=O)n3c(-c4ccccc4)csc3n2)cc1	inconclusive: 2.31 µM [activator, full curve, poor fit]	
COc1ccc(C#Cc2ccc3c(c2)c(=O)c2ccccc2n3C)cc1	inconclusive: 13 µM [activator, partial curve]	
COc1ccc(-c2c(-c3ccccc3OC)oc3ccccc23)cn1	inconclusive: 20.6 µM [activator, single point]	
O=C(Nc1ccc2c(c1)OCO2)C1CCCCC1	inconclusive: 29.1 µM [activator, single point]	
COc1ccc(-c2nnc(CSc3nc4ccccc4c(=O)n3CC(C)C)o2)cc1OC		inactive: -23.6%
CCc1noc(C)c1C(=O)Nc1ccc(S(=O)(=O)N2CCCCC2)cc1	inconclusive: 29.1 µM [falling, single point]	
CCc1ccc(CNC(=O)c2cc3cc4ccc(OC)cc4nc3o2)cc1	inconclusive: 3.66 µM [falling, full curve, poor fit]	
CCCC(=O)N1CCN(c2ccc(NC(=O)c3ccc([N+](=O)[O-])o3)cc2Cl)CC1	active: 16.4 µM	
COC(=O)C(=N/Nc1ccccc1C(=O)OC)/C(C)=N/O	inconclusive: 29.1 µM [falling, single point]	
CCc1cccc(CC)c1NC(=O)/C(C#N)=C/c1ccccc1C(F)(F)F	inconclusive: 29.1 µM [falling, single point]	
COc1cc(-c2cc(-c3ccc(O)cc3)nc(N)c2C#N)ccc1O	inconclusive: 18.4 µM [activator, single point]	
O=C1N(c2ccccc2)C[C@@H]2C[C@@H](c3cc4ccccc4o3)N3CCC[C@@]123	active: 1.16 µM	
CCc1ccc2nc(N3CCC(C(=O)NCCC(C)C)CC3)sc2c1	inconclusive: 6.51 µM [activator, single point]	
COc1cccc(N2CCN(C(=O)C3CCC(=O)N(C4CCCCCC4)C3)CC2)c1 (stereo not given)	inconclusive: 16.4 µM [falling, single point]	
O=C(CCS(=O)(=O)c1cc2c(cc1Cl)NC(=O)CO2)NCc1ccccc1	inconclusive: 29.1 µM [activator, single point]	
COc1cccc(NC(=O)Nc2cccc(C)n2)c1		inactive: 16.7%
CS(=O)(=O)c1ccc2nc(NC(=O)c3cccc(NS(=O)(=O)c4ccc(F)c(F)c4)c3)sc2c1	inconclusive: 14.6 µM [falling, partial curve, poor fit]	
CCNC(=O)N(C(=O)NCC)n1c(C)nnc1C	inconclusive: 2.59 µM [activator, full curve, poor fit]	
O=C1CCSC2(C(=O)N(Cc3ccccc3)c3ccccc32)N1c1ccccc1 (stereo not given)		inactive: -1.47%
O=S(=O)(c1ccccc1)N1N=C(c2ccccc2)CC1c1ccccc1F (stereo not given)	inconclusive: 20.6 µM [falling, partial curve]	

By substructure: the entries above with an NH in an aromatic ring
SMILES	Potency	activity change, negative = inhibition
S=c1[nH]c2cc3ccccc3cc2[nH]1	inconclusive: 29.1 µM [activator, single point]	
Cc1ccc2nc(/C(C#N)=C/c3ccc(-c4ccc(C(=O)OC(C)C)cc4)o3)[nH]c2c1	inconclusive: 9.2 µM [activator, partial curve]	
COc1cc(NC(=O)Nc2c[nH]c(=O)[nH]c2=O)cc(OC)c1OC	inconclusive: 29.1 µM [activator, single point]	
Cc1cc(NC(=O)c2ccc3[nH]c(C)c(C)c3c2)ccn1	inconclusive: 32.6 µM [falling, single point]	

More structures

SMILES	Potency	activity change, negative = inhibition
COC(=O)CCCCCN1C(=O)NC(c2ccccc2)C(C(=O)OCc2ccccc2)=C1C (stereo not given)	inconclusive: 29.1 µM [falling, single point]	
CCOC(=O)C1(Cc2ccccc2C)CCCN(C(=O)CN2C(=O)CSC2=O)C1 (stereo not given)	inconclusive: 10.3 µM [activator, single point]	
c1ccc(N2CCN(Cc3ccc4c(c3)OCO4)CC2)nc1		inactive: -2.73%
CC(=O)N1c2ccc(S(=O)(=O)NCC3CCC(C(=O)Nc4cccc(C)c4)CC3)cc2CC1C (stereo not given)	inconclusive: 29.1 µM [falling, single point]	
CCN(c1ccccc1)S(=O)(=O)c1cc(C(=O)Nc2ccccc2Cl)ccc1F	inconclusive: 20.6 µM [falling, single point]	
CN(C)/C=N/c1sc2c(c1C#N)CC(C)(C)NC2(C)C	inconclusive: 0.326 µM [falling, full curve, poor fit]	
CSc1ncc2c(=O)[nH]c(-c3ccccc3)nc2n1	inconclusive: 2.91 µM [activator, full curve, poor fit]	
O=C(NCc1ccccc1)c1ccc(CSc2nc3cccnc3n2Cc2ccccc2)cc1	inconclusive: 29.1 µM [falling, single point]	
c1ccc(CCNc2ncnc3sccc23)nc1	active: 8.2 µM	
COc1ccc(OC)c(NC(=O)CC2Oc3ccccc3NC2=O)c1 (stereo not given)		inactive: 4.61%
Cc1cc(C)c2nc(N3CCCC(C(=O)NCCN4CCOCC4)C3)sc2c1 (stereo not given)	inconclusive: 2.06 µM [activator, full curve]	
CCCN1CCN(C(=O)c2noc3c2COc2ccc(C)cc2-3)CC1	inconclusive: 14.6 µM [activator, partial curve, poor fit]	
COC(=O)C1=C(O)/C(=C\c2cc(C)n(-c3ccccc3C)c2C)N=C1C	inconclusive: 3.26 µM [activator, full curve, poor fit]	
Cc1cc(C(=O)N/N=C/c2ccc(N(C)C)cc2)c2ccccc2n1		inactive: 21.3%
Fc1ccc(N2CCN(c3nnnn3-c3ccccc3)CC2)cc1	inconclusive: 0.0046 µM [falling, full curve, poor fit]	
CCOc1ccc(NC(=O)Nc2cccc(C(=O)O)c2)cc1	inconclusive: 0.366 µM [activator, full curve, poor fit]	
O=C1C2C3c4ccccc4C(c4ccccc43)C2c2nc3ccccc3n21 (stereo not given)		inactive: -24.1%
N#Cc1ccccc1NC(=O)C(=O)NCCCN1CCCC1=O	inconclusive: 8.2 µM [activator, partial curve]	
COc1ccc(C2=Nn3c(nnc3-c3ccncc3)SC2)cc1OC	inconclusive: 18.4 µM [falling, single point]	
CCCCc1c(O)c2ccccc2n(CCCC)c1=O		inactive: 13.2%
CCOc1ccc2[nH]c3c(NCCC(C)C)ncnc3c2c1	inconclusive: 16.4 µM [falling, single point]	

Reference: PubChem BioAssay AID504444 (National Center for Advancing Translational Sciences (NCATS), 2011)
